The experiment in a line: qHTS Assay to Find Inhibitors of Chronic Active B-Cell Receptor Signaling. The conditions noted are these: ABC-DLBCL IkBa-CBG/CBR reporter, luminescence ratio (green luciferase fused to IkBa over red control in TMD8 lymphoma cells), 4 h. The gist of the method:
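Compounds up to 46 uM were incubated four hours with TMD8 cells whose green CBG68 luciferase is fused to IkappaBalpha; red CBR luminescence normalised the signal, and concentration-effect curves were fitted to fusion, red and ratio data.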
(qHTS replaces the single test concentration by a dilution series.)

Setting [1] is: measured here: CBR red luminescence, cell number.
The mark [2] stands for this setting: measured here: IkBa-CBG green luminescence.

This is one part of the list. Shown are side measurements of this screen, not its main read-out; they come without a call. Compounds called inactive in the main read-out are mostly missing here. Words in brackets tell the shape of the fitted curve; partial curves, single points and poor fits give uncertain potencies.

What is called AC50 is the concentration giving half of the maximal activity seen. For `COCCOC(=O)C1=C(C)OC(N)=C(C#N)C1c1cc2cccc(C)c2nc1Cl` (centres undefined), the AC50 is, setting by setting: under setting [1], 3.55 µM [falling, partial curve, poor fit]; under setting [2], 2.82 µM [falling, single point]. For `Oc1ccc(-c2onc(C(F)(F)F)c2-c2cscn2)c(O)c1`, the AC50 under setting [1] is 20.6 µM [falling, partial curve, poor fit]. Still for that read-out and setting: next, `COc1ccc(C2=C/C(=C\c3ccccc3OC(C)=O)C(=O)O2)cc1`: 6.31 µM [rising, single point]; `COc1ccccc1C(=O)NNC(=O)C(=O)NCc1ccccc1`: 10 µM [falling, partial curve]; `CCOC(=O)N1CCC(N(CCN(C)C)C(=S)Nc2cccc(OC)c2)CC1`: 3.16 µM [falling, single point].

As for `CC(/C=N/NC(=O)c1cc(-c2ccccc2)nc2ccccc12)=C\c1ccco1`, the AC50 under setting [1] was 8.2 µM [rising, partial curve] and the AC50 under setting [2] is 18.4 µM [falling, partial curve]. As to `O=C1/C(=C\Nc2ccccc2)CCN1c1ncccn1`, the AC50 under setting [1] was 18.4 µM [falling, single point]. `Cc1ccccc1C(=O)NC(NCC1CCCO1)C(Cl)(Cl)Cl` (centres undefined): the AC50 under setting [1] is 8.91 µM [falling, partial curve, poor fit].

`COc1cc(CCC(=O)N2CCN(c3ccc(N4CCOCC4)nn3)CC2)cc(OC)c1OC`: the AC50 under setting [1] is 4.11 µM [falling, single point]. Regarding `O=c1[nH]c(CSc2ncn[nH]2)nc2ccccc12`, under setting [1], the AC50 was 15.8 µM [rising, single point].

Consider `CC1CN(C(=O)c2cccc(COc3ccc(Br)cc3)c2)CC(C)O1` (centres undefined), for which the AC50 under setting [1] was 2.31 µM [rising, partial curve]. Take `O=C(C1CCN(Cc2ccccc2)CC1)N1CCN(C/C=C/c2ccccc2)CC1`: under setting [1], the AC50 is 0.13 µM [rising, full curve, poor fit].

Regarding `COc1ccc(/C=N\NC(=O)c2ccccc2OC)cc1COc1c(F)c(F)c(F)c(F)c1F`, the AC50 under setting [1] was 5.62 µM [falling, full curve]. For `C=CCOC(=O)Nc1ccc(Cl)cc1NC(=O)OCC=C`, the AC50 under setting [1] is 25.9 µM [rising, single point].

For `O=C(NN1C(=O)c2ccccc2NC1c1ccc([N+](=O)[O-])o1)c1ccccc1` (centres undefined), the AC50 under setting [1] was 35.5 µM [falling, single point]. Regarding `O=C(NNC1=Nc2cc([N+](=O)[O-])ccc2OC1)c1ccccc1Cl`, under setting [1], the AC50 was 15.8 µM [falling, single point]. With `CCOC(=O)C1CCCN(CC(=O)c2c[nH]c3ccc(C)cc23)C1` (centres undefined), the AC50 under setting [1] is 5.62 µM [rising, single point]. For `CN1/C(=C\C(=O)Nc2ccc(F)cc2)C(C)(C)c2ccccc21`, the AC50 by setting is: under setting [1], 18.4 µM [falling, single point]; under setting [2], 29.1 µM [rising, single point].

For the compound `CC(C)/C=N/NC(=O)c1cc(Br)ccc1O`, under setting [1], the AC50 is 1.16 µM [falling, full curve]. With `O=C1CN(C(=O)c2cc3ccccc3o2)c2ccccc2N1`, under setting [1], the AC50 is 32.6 µM [falling, single point]. Take `COc1ccccc1/C=C/CN1CCCC(CO)(Cc2cccc(Cl)c2)C1` (centres undefined): the AC50 under setting [1] was 0.447 µM [falling, full curve, poor fit]. For `Cc1ccc(Nc2nc(-c3ccccc3)nc3ccccc23)cc1`, under setting [2], the AC50 was 15.8 µM [rising, partial curve, poor fit]. For the compound `COc1cc(OC)cc(C(=O)O/N=C(\N)c2ccncc2)c1`, under setting [1], the AC50 is 4.61 µM [rising, partial curve]. Regarding `NNC(=O)CSCc1nc(-c2ccccc2)cs1`, the AC50 under setting [1] was 0.316 µM [falling, full curve, poor fit]. As for `COc1ccc(Cc2nc(-c3ccc(-n4cccc4)cc3)no2)cc1`, the AC50 under setting [1] was 3.26 µM [rising, partial curve, poor fit].

Turning to `CC(=O)c1ccc(OCc2cc(C(=O)N(C)C(C)c3nccs3)no2)cc1` (centres undefined), under setting [1], the AC50 is 14.1 µM [rising, partial curve, poor fit]. As for `O=C(/C=C/c1cccs1)Nc1cccc(NC(=O)/C=C/c2cccs2)n1`, under setting [1], the AC50 was 9.2 µM [falling, partial curve].

With `O=C(Nc1nc(-c2cc(F)ccc2F)cs1)c1ccccn1`, the AC50 under setting [1] was 15.8 µM [rising, partial curve, poor fit]. Regarding `CCOC(=O)c1nnn(-c2nonc2N)c1CNc1ccc(C)c(Br)c1`, the AC50 under setting [1] was 32.6 µM [falling, partial curve, poor fit]. For `C=CCOC(=O)C1=C(C)NC(SCC(=O)N(CC)CC)=C(C#N)C1c1ccccc1` (centres undefined), under setting [1], the AC50 was 12.6 µM [falling, single point]. Turning to `CCN1CCN(C(=O)Nc2ccc(Cc3ccc(NC(=O)N4CCN(CC)CC4)cc3)cc2)CC1`, the AC50 under setting [1] was 10 µM [falling, partial curve, poor fit]. Same read-out and setting: next, `COc1ccc(NC(=O)c2cc(-c3ccccc3)on2)cc1`: 1.26 µM [falling, full curve, poor fit]; `CCOc1cc(NC(=O)c2ccco2)c(OCC)cc1NC(=O)Cc1cccc(OC)c1`: 0.184 µM [falling, full curve, poor fit]. Regarding `O=C(NCCN1CCN(c2ccccc2F)CC1)c1ccc2nc3ccccc3c(=O)n2c1`, under setting [1], the AC50 is 0.398 µM [rising, full curve, poor fit].

`COc1ccc(N/C=C/C(=O)C(F)(F)F)cc1`: the AC50 under setting [1] is 14.6 µM [rising, partial curve, poor fit]. As to `Cn1c2ccccc2c2cc(C(=O)NNC(=O)CCl)sc21`, the AC50 under setting [1] was 11.2 µM [falling, partial curve].

On to `O=C(CCc1ccccc1)N1CCN(c2ccccc2F)CC1`, for which the AC50 under setting [1] is 14.1 µM [rising, single point]. As for `COc1ccc(OCc2ccc(C(=O)O)cc2)cc1`, the AC50 under setting [1] is 9.2 µM [falling, partial curve]. As for `Cc1nnc(NCCc2ccccc2)c2ccccc12`, the AC50 under setting [1] was 15.8 µM [falling, single point]. As for `O=C(/C=C/c1ccc(F)cc1)N1CCCN(C(=O)/C=C/c2ccc(F)cc2)CC1`, the AC50 under setting [1] is 7.31 µM [falling, partial curve, poor fit]. As to `O=C(c1ccc(CS(=O)Cc2ccc(Cl)cc2)o1)N1CCN(c2cccc(Cl)c2)CC1` (centres undefined), the AC50 under setting [1] is 17.8 µM [falling, single point].

Values taken from PubChem BioAssay AID493014 (National Center for Advancing Translational Sciences (NCATS), 2011).
